# Assay results as given in patent US20210214440A1.
# Results are given in words; binding and its absence hold for the method and conditions named.
# Molecular target: Human CD8αα fused to human Fc (human)
# Test: SPR Biacore 8K, mAb captured, single cycle kinetics
binder,measurement,value
"CD8B362 (antibody, human IgG1, kappa, V domains shown) VH: EVKLVESGAELVKPGASVKLSCTASGFNIKDTYMHWVKQRPEQGLEWIGRIDPANGHTKFDPKFQGKATITADTSSNTAYLQLSSLTSEDTAVYYCAIRFAYWGQGTLVTVSA VL: DIQMTQSPSSLSASLGDRVSLTCRASHEISGYLSWLQQKPDGTFKRLIYAASTLDSGVPKRFSGSRSGSDYSLSISSLESEDFADYYCLQYSSYPYTFGSGTKLEMKR",binding,no binding (tested: 100 nM)
